# Experimental data: publication PMC11150143
# Protein sequences, listed by entry. Tags and fused reporters are not part of them.
# UniProt P26651: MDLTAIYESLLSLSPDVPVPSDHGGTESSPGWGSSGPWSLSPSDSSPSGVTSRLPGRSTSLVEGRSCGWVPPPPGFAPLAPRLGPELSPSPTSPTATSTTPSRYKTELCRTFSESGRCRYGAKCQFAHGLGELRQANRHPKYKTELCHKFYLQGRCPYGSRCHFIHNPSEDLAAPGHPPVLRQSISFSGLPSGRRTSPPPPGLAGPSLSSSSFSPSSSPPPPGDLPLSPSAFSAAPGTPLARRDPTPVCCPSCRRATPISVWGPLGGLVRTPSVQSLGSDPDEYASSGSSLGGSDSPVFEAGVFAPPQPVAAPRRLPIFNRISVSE
# UniProt P49137: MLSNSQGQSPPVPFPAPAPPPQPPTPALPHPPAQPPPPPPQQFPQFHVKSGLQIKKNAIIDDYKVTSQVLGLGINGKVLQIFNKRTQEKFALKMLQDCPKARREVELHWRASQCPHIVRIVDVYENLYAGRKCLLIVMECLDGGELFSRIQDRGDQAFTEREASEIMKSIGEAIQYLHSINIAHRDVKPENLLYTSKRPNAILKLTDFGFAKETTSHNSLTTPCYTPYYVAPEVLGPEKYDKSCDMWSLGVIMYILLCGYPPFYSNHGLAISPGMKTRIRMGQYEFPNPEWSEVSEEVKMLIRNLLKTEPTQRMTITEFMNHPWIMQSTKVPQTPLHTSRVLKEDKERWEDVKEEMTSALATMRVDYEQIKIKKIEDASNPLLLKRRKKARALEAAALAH
# These are yes or no findings as the source states them, for the method shown. In cells and extracts the contact can be indirect. Some binding calls cover weakened binding; strength is not graded here.
# Target: ZFP36 (human (endogenous in HIOECs)) (UniProt P26651)
# Assay: co-IP; RNA-binding protein immunoprecipitation (RIP, Magna RIP kit) with a ZFP36 antibody from cells 48 h after transfection with CCAT1 inhibition or overexpression plasmids; precipitates analysed by PCR and Western blotting; more MK2 in the precipitate with CCAT1 overexpression
substance,measurement,value
MAPK-activated protein kinase 2 (from UniProt P49137 1-400) (enzyme),binding,binds
